This is an account of results in paper doi:10.1101/2024.09.04.611121.

Amino acid sequences for entries named in this document (tags omitted).
UniProt Q92973: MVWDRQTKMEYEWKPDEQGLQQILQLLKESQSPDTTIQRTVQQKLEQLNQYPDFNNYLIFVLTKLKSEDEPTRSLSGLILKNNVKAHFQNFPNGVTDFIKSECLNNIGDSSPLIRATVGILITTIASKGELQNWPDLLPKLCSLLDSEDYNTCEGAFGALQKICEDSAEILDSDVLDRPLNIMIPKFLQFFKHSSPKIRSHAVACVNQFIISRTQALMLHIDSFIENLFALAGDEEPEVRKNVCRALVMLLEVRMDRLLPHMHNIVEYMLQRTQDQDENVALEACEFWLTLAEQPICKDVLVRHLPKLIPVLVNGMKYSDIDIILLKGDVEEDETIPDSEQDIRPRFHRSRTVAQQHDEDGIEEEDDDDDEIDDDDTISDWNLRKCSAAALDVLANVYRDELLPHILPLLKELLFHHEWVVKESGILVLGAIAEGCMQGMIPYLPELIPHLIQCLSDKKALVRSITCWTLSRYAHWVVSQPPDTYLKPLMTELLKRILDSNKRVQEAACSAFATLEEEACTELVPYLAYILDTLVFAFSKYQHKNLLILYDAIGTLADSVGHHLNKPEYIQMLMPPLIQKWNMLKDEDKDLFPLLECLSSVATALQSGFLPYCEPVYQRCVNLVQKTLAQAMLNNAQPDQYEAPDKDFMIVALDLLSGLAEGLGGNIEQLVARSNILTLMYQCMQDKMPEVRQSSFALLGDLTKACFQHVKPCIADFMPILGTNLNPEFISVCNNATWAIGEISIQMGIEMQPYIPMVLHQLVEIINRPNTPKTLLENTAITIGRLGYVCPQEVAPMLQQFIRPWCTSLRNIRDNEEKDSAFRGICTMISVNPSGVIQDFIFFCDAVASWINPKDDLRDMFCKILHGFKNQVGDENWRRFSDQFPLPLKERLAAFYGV

The test addresses TDP-43 (TAR DNA/RNA-binding protein 43 kDa), endogenous (human (endogenous in iPSC-derived cortical neurons)) (UniProt Q13148). Kind of test: co-IP.

No constants are given. Whether binding was seen depends on the method and setting. Binding seen in cells or lysates may run through a third protein.

Consider “importin-β2, endogenous (iPSC-derived cortical neurons) (from UniProt Q92973 1-898)”, for which the binding result is given as “no binding”.
